Experimental data as given in patent US9580458B2, “Polymorphic form of sodium hyodeoxycholate (NaHDC) and its preparation process” (PRODOTTI CHIMICI E […].P.A., priority 2013, dated 2017).
Some entries share one result that the patent states for a list of compounds.

Assay: Thermal stability by DSC and XPRD at variable temperature
Assay type: physicochemical
Settings: solid-solid conversion into form FI
Procedure: The thermal properties of the polymorphic forms described were obtained through differential scanning calorimetry (DSC). The DSC profiles were obtained with a heat flow instrument DSC 200 F3 Maia® (Netzsch). The DSC 200 F3 Maia® instrument was calibrated for temperature and enthalpy with an indium standard (melting point: 156.6° C.; ΔHf=28.45 Jg^−1). The samples were analysed according to the following conditions: • temperature range: 25-350° C.; • heating rate: 10° C./min; • sample-holder: perforated aluminium crucible; • gas: anhydrous nitrogen at a flow rate of 60 mL/min.
In order to determine the X-ray powder diffraction profiles (XPRD) a diffractometer Panalytical X'Pert Pro equipped with detector X'Celerator and X-ray tube (PW3373/00 Cu LFF DK312503) with current intensity 40 mA and voltage 40 kV was used. The instrument was calibrated with a silicon powder standard PANalytical640. The sample was positioned on a glass sample-carrier and analysed using the following parameters: • Scanning range(°): 3.0010-39.9997 • Data acquisition range(°): 0.0167 • Scanning mode: Continuous • Counter time (s): 12,700 • soller slits (rad): 0.04 • divergence slits: ¼ • anti-scatter slits: ½

Structure (SMILES)	temperature of conversion into the polymorphic form FI on heating
C[C@H](CCC(=O)[O-])[C@H]1CC[C@H]2[C@@H]3C[C@H](O)[C@@H]4C[C@H](O)CC[C@]4(C)[C@H]3CC[C@]12C.[Na+] [SI, sodium 3α,6α-dihydroxy-5β,-cholan-24-oate]	over 310 °C
C[C@H](CCC(=O)[O-])[C@H]1CC[C@H]2[C@@H]3C[C@H](O)[C@@H]4C[C@H](O)CC[C@]4(C)[C@H]3CC[C@]12C.[Na+] [SII, sodium 3α,6α-dihydroxy-5β,-cholan-24-oate]	over 310 °C
